PubChem BioAssay AID504764 | Drosophila RNAi Screening Center | 2011

Purpose: 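Genome-wide screen for regulators of Notch-driven gene expression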 (primary screen)
Cells: Drosophila Kc167 cells
Reagents: long dsRNA against Drosophila genes
Time to read-out: about 5 days (4 days dsRNA, then 24 h after transfection)
Conditions: transfection of constitutively active membrane-tethered Notch lacking the extracellular domain, read 24 h later
Read-out: 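Light from a Notch-responsive E(spl)m3 luciferase reporter under active Notch, with control-promoter and no-Notch reporter wells to normalise; raw counts from paired wells a and b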
Direction: induced reporter light, run 1, well a and induced reporter light, run 1, well b: higher = more light from the Notch target reporter with active Notch; control promoter light, run 1, well a and control promoter light, run 1, well b: higher = more light from the viral control promoter (cell number, transfection, viability); uninduced reporter light, run 1, well a: higher = more light from the Notch target reporter without active Notch
Hit rule: 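Hit if the duplicate-averaged log2 ratio of induced to control-promoter light gives a plate-wise z beyond ±2, or induced to uninduced beyond ±1.8; weak-control or discordant-duplicate wells dropped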
Calls: active = modifier hit (raised or lowered Notch signal); inactive = not a hit
In all, the deposit lists about 22,000 reagents; this is an unselected part of those that have a named target and a result. Over the whole deposit, 403 (1.9%) are marked active. 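Unnormalised raw counts per well; ratio z-scores behind the hit calls and whether each hit raises or lowers signal are not deposited.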 Entries without a mark were called inactive. A plus sign joins genes that one reagent is predicted to hit. Not given: the amount of reagent.

no.	gene knocked down	amplicon	induced reporter light, run 1, well a	induced reporter light, run 1, well b	control promoter light, run 1, well a	control promoter light, run 1, well b	uninduced reporter light, run 1, well a
1	Ada (Adenosine deaminase)	DRSC14463	22015	27680	28360	31785	1905
2	Ir67b (Ionotropic receptor 67b)	DRSC09876	2.98e5	1.97e5	3.54e5	2.83e5	15300
3	CG10822	DRSC06005	48425	33200	42035	41265	5325
4	CG13908 (retired record)	DRSC08378	1.42e5	1.62e5	1.87e5	1.81e5	7820
5	Vha16-1 (Vacuolar H[+] ATPase 16kD subunit 1)	DRSC05020	1.63e5	1.24e5	1.60e5	1.47e5	8720
6	CG6550	DRSC07001	96595	1.10e5	1.87e5	2.37e5	11495
7	Scp2 (Sarcoplasmic calcium-binding protein 2)	DRSC13166	1.91e5	1.73e5	2.00e5	1.69e5	10915
8	Scp2 (Sarcoplasmic calcium-binding protein 2)	DRSC16854	2.77e5	2.56e5	2.78e5	3.00e5	20790
9	CG14757	DRSC06492	1.87e5	1.53e5	2.50e5	2.52e5	15195
10	Spn55B (Serpin 55B)	DRSC07694	70470	76185	92210	77370	5675
11	CG32280	DRSC08024	1.60e5	1.97e5	2.07e5	1.80e5	13460
12	Cda9 (Chitin deacetylase-like 9)	DRSC06593	1.23e5	1.03e5	1.20e5	1.20e5	10550
13	yellow-d	DRSC04589	2.04e5	1.81e5	1.77e5	1.89e5	14810
14	Alp12 (Alkaline phosphatase 12)	DRSC02515	50760	55990	62200	42175	2255
15	Arc1 (Activity-regulated cytoskeleton associated protein 1)	DRSC06159	1.14e5 (active)	1.23e5	1.44e5	1.44e5	17682
16	gek (genghis khan)	DRSC04688	1.53e5	2.22e5	1.60e5	1.71e5	13260
17	spirit (Serine Protease Immune Response Integrator)	DRSC18202	1.86e5	1.69e5	2.36e5	2.17e5	13865
18	CG14696	DRSC14919	96970	97100	91115	60385	6570

Reagents listed so far called active:
gene knocked down	amplicon	induced reporter light, run 1, well a	induced reporter light, run 1, well b	control promoter light, run 1, well a	control promoter light, run 1, well b	uninduced reporter light, run 1, well a
Arc1 (Activity-regulated cytoskeleton associated protein 1)	DRSC06159	1.14e5 (active)	1.23e5	1.44e5	1.44e5	17682

Further entries follow:
no.	gene knocked down	amplicon	induced reporter light, run 1, well a	induced reporter light, run 1, well b	control promoter light, run 1, well a	control promoter light, run 1, well b	uninduced reporter light, run 1, well a
19	CG17493	DRSC03798	25190	24432	20320	23515	1605
20	bys (by S6)	DRSC18748	1.58e5	1.39e5	1.94e5	1.68e5	9645
21	Cpr66D (Cuticular protein 66D)	DRSC10640	23005	13760	24950	25155	4350
22	Cpr66D (Cuticular protein 66D)	DRSC10646	48495	31305	55080	47745	6260
23	CG5727	DRSC02882	2.19e5	2.32e5	1.73e5	2.15e5	16790
24	heph (hephaestus)	DRSC14082	34685	85765	99035	1.19e5	6438
25	heph (hephaestus)	DRSC14085	46115 (active)	74555	1.14e5	1.19e5	6015
26	heph (hephaestus)	DRSC15436	66700	63965	97735	1.26e5	4760
27	heph (hephaestus)	DRSC16783	76985	80880	1.14e5	1.59e5	7120
28	mv (mauve)	DRSC08208	84935	1.10e5	1.37e5	1.40e5	7410
29	mv (mauve)	DRSC08570	1.24e5	1.24e5	2.01e5	1.76e5	5595
30	CG15136	DRSC02436	1.14e5	1.16e5	1.06e5	1.28e5	10350
31	CG30428	DRSC04041	1.45e5	1.66e5	2.76e5	2.35e5	9810
32	Ptp52F (Protein tyrosine phosphatase 52F)	DRSC06717	1.19e5	88480	1.33e5	1.29e5	10675
33	CG14868	DRSC14991	1.70e5	1.94e5	2.67e5	3.02e5	13640
34	nyo (nyobe)	DRSC15029	1.49e5	1.35e5	1.87e5	3.09e5	10915
35	nyo (nyobe)	DRSC15030	1.03e5	1.10e5	1.93e5	1.89e5	8850
36	yps (ypsilon schachtel)	DRSC11411	1.48e5	1.35e5	1.31e5	1.15e5	6265
37	CG4198	DRSC18354	2.31e5	1.87e5	2.18e5	1.88e5	14590
38	ND-B14.5A (NADH dehydrogenase (ubiquinone) B14.5 A subunit)	DRSC18500	1.05e5	90750	1.55e5	1.49e5	8180
39	CG15890	DRSC19737	89115	94280	1.10e5	1.12e5	14155
40	msb1l	DRSC03572	1.92e5	2.02e5	1.99e5	1.98e5	15450
41	CG5664	DRSC11782	1.61e5	1.31e5	2.22e5	2.22e5	12680
42	CG16719	DRSC10222	1.10e5	1.40e5	84135	40680	10110
43	Eip74EF (Ecdysone-induced protein 74EF)	DRSC10613	5950	5220	3760	3090	2510
44	Eip74EF (Ecdysone-induced protein 74EF)	DRSC11160	95010	80170	1.19e5	99305	4860
45	Slik (Sterile20-like kinase)	DRSC04471	1.20e5	1.56e5	1.02e5	1.29e5	8780
46	CG14966	DRSC08425	69175	1.33e5	1.86e5	1.73e5	8070
47	CG42824 + CG42823	DRSC13230	53250	54345	70230	81980	7895
48	plh (pasang lhamu)	DRSC12294	1.65e5	1.24e5	1.14e5	1.18e5	13910
49	CG14636	DRSC12223	1.14e5	84780	98815	1.02e5	7165
50	CG31550	DRSC12197	72015	74400	60135	43680	7385
51	CG31550	DRSC12198	1.35e5	1.36e5	89595	76450	9380
